# Experimental data as given in the supplement of paper PMC8728848.
# The list shows a part of the results.
# Assays:
# Test in all cases: glycan array binding signal (z-score within array); higher = stronger binding
# Details in all cases: glycan notation: IUPAC condensed, linker removed
# [1] = target: GalNAc(b1-4)GlcNAc(b1-2)Man
# Outline: (§1)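 Glycan array binding is given as a within-array Z-score, which can be read as non-binding when negative. The arrays, 3228 of them, came from the Consortium for Functional Glycomics database and were retained only where the protein sequence was available. Z-scores were averaged across arrays of the same protein sequence at different concentrations or buffers and across linkers.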
# [2] = target: GalNAc(b1-4)GlcNAc(b1-2)Man(a1-3)[GalNAc(b1-4)GlcNAc(b1-2)Man(a1-6)]Man(b1-4)GlcNAc(b1-4)GlcNAc
# Outline: as §1
# [3] = target: GalNAc(b1-4)GlcNAc(b1-3)GalNAc(b1-4)GlcNAc
# Outline: as §1
# GalNAc(b1-4)GlcNAc6S = target: GalNAc(b1-4)GlcNAc6S
# Outline: as §1
# GalNAc(b1-6)GalNAc = target: GalNAc(b1-6)GalNAc
# Outline: as §1
# GalNAc3S(b1-4)GlcNAc = target: GalNAc3S(b1-4)GlcNAc
# Outline: as §1
# GalNAc3S(b1-4)GlcNAc3S = target: GalNAc3S(b1-4)GlcNAc3S
# Outline: as §1
# [4] = target: GalNAc3S(b1-4)[Fuc(a1-3)]GlcNAc
# Outline: as §1
# GalNAc4S6S(b1-4)GlcNAc = target: GalNAc4S6S(b1-4)GlcNAc
# Outline: as §1
# GalNAc6S(b1-4)GlcNAc = target: GalNAc6S(b1-4)GlcNAc
# Outline: as §1
# Glc(a1-4)Glc = target: Glc(a1-4)Glc
# Outline: as §1
# [5] = target: Glc(a1-4)Glc(a1-4)Glc(a1-4)Glc
# Outline: as §1
# Glc(a1-6)Glc(a1-6)Glc = target: Glc(a1-6)Glc(a1-6)Glc
# Outline: as §1
# [6] = target: Glc(a1-6)Glc(a1-6)Glc(a1-6)Glc
# Outline: as §1
# Glc(b1-4)Glc = target: Glc(b1-4)Glc
# Outline: as §1
# Glc(b1-6)Glc = target: Glc(b1-6)Glc
# Outline: as §1
# GlcA(b1-3)Gal = target: GlcA(b1-3)Gal
# Outline: as §1
# GlcA(b1-3)GlcNAc = target: GlcA(b1-3)GlcNAc
# Outline: as §1
# GlcA(b1-6)Gal = target: GlcA(b1-6)Gal
# Outline: as §1
# [7] = target: GlcA3S(b1-3)Gal(b1-4)GlcNAc(b1-2)Man
# Outline: as §1
# [8] = target: GlcA3S(b1-3)Gal(b1-4)GlcNAc(b1-3)Gal(b1-4)Glc
# Outline: as §1
# [9] = target: GlcNAc(a1-3)Gal(b1-4)GlcNAc
# Outline: as §1
# [10] = target: GlcNAc(a1-4)Gal(b1-3)GlcNAc
# Outline: as §1
# [11] = target: GlcNAc(a1-4)Gal(b1-4)GalNAc
# Outline: as §1
# [12] = target: GlcNAc(a1-4)Gal(b1-4)GlcNAc
# Outline: as §1
# [13] = target: GlcNAc(a1-4)Gal(b1-4)GlcNAc(b1-3)Gal(b1-4)Glc
# Outline: as §1
# [14] = target: GlcNAc(a1-4)Gal(b1-4)GlcNAc(b1-3)Gal(b1-4)GlcNAc
# Outline: as §1
# [15] = target: GlcNAc(a1-4)Gal(b1-4)GlcNAc(b1-3)Gal(b1-4)GlcNAc(b1-3)Gal(b1-4)GlcNAc
# Outline: as §1
# [16] = target: GlcNAc(a1-4)Gal(b1-4)GlcNAc(b1-3)Gal(b1-4)[Fuc(a1-3)]GlcNAc(b1-3)Gal(b1-4)[Fuc(a1-3)]GlcNAc
# Outline: as §1
# [17] = target: GlcNAc(a1-6)Gal(b1-4)GlcNAc
# Outline: as §1
# [18] = target: GlcNAc(b1-2)Gal(b1-3)GalNAc
# Outline: as §1
# [19] = target: GlcNAc(b1-2)Man(a1-3)[GlcNAc(b1-2)Man(a1-6)]Man(b1-4)GlcNAc(b1-4)GlcNAc
# Outline: as §1
# [20] = target: GlcNAc(b1-2)Man(a1-3)[GlcNAc(b1-2)Man(a1-6)]Man(b1-4)GlcNAc(b1-4)[Fuc(a1-6)]GlcNAc
# Outline: as §1
# [21] = target: GlcNAc(b1-2)Man(a1-3)[GlcNAc(b1-4)][GlcNAc(b1-2)Man(a1-6)]Man(b1-4)GlcNAc(b1-4)GlcNAc
# Outline: as §1
# [22] = target: GlcNAc(b1-2)Man(a1-3)[GlcNAc(b1-4)][GlcNAc(b1-2)Man(a1-6)]Man(b1-4)GlcNAc(b1-4)[Fuc(a1-6)]GlcNAc
# Outline: as §1
# [23] = target: GlcNAc(b1-2)[GlcNAc(b1-4)]Man(a1-3)[GlcNAc(b1-2)Man(a1-6)]Man(b1-4)GlcNAc(b1-4)GlcNAc
# Outline: as §1
# [24] = target: GlcNAc(b1-2)[GlcNAc(b1-4)]Man(a1-3)[GlcNAc(b1-4)][GlcNAc(b1-2)Man(a1-6)]Man(b1-4)GlcNAc(b1-4)GlcNAc
# Outline: as §1
# [25] = target: GlcNAc(b1-2)[GlcNAc(b1-4)]Man(a1-3)[GlcNAc(b1-4)][GlcNAc(b1-2)[GlcNAc(b1-6)]Man(a1-6)]Man(b1-4)GlcNAc(b1-4)GlcNAc
# Outline: as §1
# [26] = target: GlcNAc(b1-2)[GlcNAc(b1-4)]Man(a1-3)[GlcNAc(b1-4)][GlcNAc(b1-2)[GlcNAc(b1-6)]Man(a1-6)]Man(b1-4)GlcNAc(b1-4)[Fuc(a1-6)]GlcNAc
# Outline: as §1
# [27] = target: GlcNAc(b1-2)[GlcNAc(b1-6)]Man(a1-6)[GlcNAc(b1-2)Man(a1-3)]Man(b1-4)GlcNAc(b1-4)GlcNAc
# Outline: as §1
# [28] = target: GlcNAc(b1-2)[GlcNAc(b1-6)]Man(a1-6)[GlcNAc(b1-2)Man(a1-3)]Man(b1-4)GlcNAc(b1-4)[Fuc(a1-6)]GlcNAc
# Outline: as §1
# [29] = target: GlcNAc(b1-2)[GlcNAc(b1-6)]Man(a1-6)[GlcNAc(b1-4)][GlcNAc(b1-2)Man(a1-3)]Man(b1-4)GlcNAc(b1-4)GlcNAc
# Outline: as §1
# GlcNAc(b1-3)Fuc = target: GlcNAc(b1-3)Fuc
# Outline: as §1
# GlcNAc(b1-3)Gal = target: GlcNAc(b1-3)Gal
# Outline: as §1
# [30] = target: GlcNAc(b1-3)Gal(b1-3)GalNAc
# Outline: as §1
binder,measurement,setting,value
Mermaid1 (Stilbonema majum) (protein) MGSSHHHHHHSSGLVPRGSHMAASGWLRSPQGTVVKLYRRSLSWSKADEFCKDVDGRLVVDRTADMHLFLIKNVLKEKKSRVWVGLRRTAPHSRTWIWSDGTRQNEDDLDANLWLRDEPNDAAGEEECALFMYSPWEKAWGLNDYLCRGGCRSYQFICEKWIR,glycan array binding signal (z-score),[1],3.48
same,glycan array binding signal (z-score),[2],-0.923
same,glycan array binding signal (z-score),[3],1.28
same,glycan array binding signal (z-score),GalNAc(b1-4)GlcNAc6S,2.33
same,glycan array binding signal (z-score),GalNAc(b1-6)GalNAc,-0.356
same,glycan array binding signal (z-score),GalNAc3S(b1-4)GlcNAc,-0.812
same,glycan array binding signal (z-score),GalNAc3S(b1-4)GlcNAc3S,-0.766
same,glycan array binding signal (z-score),[4],0.714
same,glycan array binding signal (z-score),GalNAc4S6S(b1-4)GlcNAc,-0.9
same,glycan array binding signal (z-score),GalNAc6S(b1-4)GlcNAc,0.654
same,glycan array binding signal (z-score),Glc(a1-4)Glc,0.065
same,glycan array binding signal (z-score),[5],0.253
same,glycan array binding signal (z-score),Glc(a1-6)Glc(a1-6)Glc,-0.31
same,glycan array binding signal (z-score),[6],1.52
same,glycan array binding signal (z-score),Glc(b1-4)Glc,0.159
same,glycan array binding signal (z-score),Glc(b1-6)Glc,-0.151
same,glycan array binding signal (z-score),GlcA(b1-3)Gal,-0.437
same,glycan array binding signal (z-score),GlcA(b1-3)GlcNAc,-0.379
same,glycan array binding signal (z-score),GlcA(b1-6)Gal,1.57
same,glycan array binding signal (z-score),[7],0.412
same,glycan array binding signal (z-score),[8],-0.35
same,glycan array binding signal (z-score),[9],-0.463
same,glycan array binding signal (z-score),[10],-0.025
same,glycan array binding signal (z-score),[11],0.202
same,glycan array binding signal (z-score),[12],-0.605
same,glycan array binding signal (z-score),[13],-0.738
same,glycan array binding signal (z-score),[14],-0.092
same,glycan array binding signal (z-score),[15],-0.79
same,glycan array binding signal (z-score),[16],-0.193
same,glycan array binding signal (z-score),[17],-0.451
same,glycan array binding signal (z-score),[18],-0.353
same,glycan array binding signal (z-score),[19],-0.645
same,glycan array binding signal (z-score),[20],0.566
same,glycan array binding signal (z-score),[21],-0.618
same,glycan array binding signal (z-score),[22],0.314
same,glycan array binding signal (z-score),[23],-0.141
same,glycan array binding signal (z-score),[24],-0.515
same,glycan array binding signal (z-score),[25],-0.221
same,glycan array binding signal (z-score),[26],-0.663
same,glycan array binding signal (z-score),[27],0.076
same,glycan array binding signal (z-score),[28],-0.878
same,glycan array binding signal (z-score),[29],-0.438
same,glycan array binding signal (z-score),GlcNAc(b1-3)Fuc,-0.068
same,glycan array binding signal (z-score),GlcNAc(b1-3)Gal,1.31
same,glycan array binding signal (z-score),[30],-0.864

# In another format: entries from further up
binder | measurement | setting | value
Mermaid1 (Stilbonema majum) (protein) MGSSHHHHHHSSGLVPRGSHMAASGWLRSPQGTVVKLYRRSLSWSKADEFCKDVDGRLVVDRTADMHLFLIKNVLKEKKSRVWVGLRRTAPHSRTWIWSDGTRQNEDDLDANLWLRDEPNDAAGEEECALFMYSPWEKAWGLNDYLCRGGCRSYQFICEKWIR | glycan array binding signal (z-score) | [22] | 0.314
same | glycan array binding signal (z-score) | [23] | -0.141
same | glycan array binding signal (z-score) | [24] | -0.515
